## Results of single-concentration screens

Amino acid sequences for entries named in this document (tags omitted). Residues count along the entry.
UniProt P9WFT3, whole entry: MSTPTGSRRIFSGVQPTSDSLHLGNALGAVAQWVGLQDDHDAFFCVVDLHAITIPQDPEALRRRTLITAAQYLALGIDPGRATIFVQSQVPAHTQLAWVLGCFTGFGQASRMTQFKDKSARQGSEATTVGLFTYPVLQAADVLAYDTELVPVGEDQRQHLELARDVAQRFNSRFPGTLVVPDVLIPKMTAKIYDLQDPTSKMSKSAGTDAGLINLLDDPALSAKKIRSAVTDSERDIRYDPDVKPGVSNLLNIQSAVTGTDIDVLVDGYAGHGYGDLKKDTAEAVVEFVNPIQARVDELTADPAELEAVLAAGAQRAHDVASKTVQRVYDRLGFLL
UniProt Q8IDJ8, 1-583: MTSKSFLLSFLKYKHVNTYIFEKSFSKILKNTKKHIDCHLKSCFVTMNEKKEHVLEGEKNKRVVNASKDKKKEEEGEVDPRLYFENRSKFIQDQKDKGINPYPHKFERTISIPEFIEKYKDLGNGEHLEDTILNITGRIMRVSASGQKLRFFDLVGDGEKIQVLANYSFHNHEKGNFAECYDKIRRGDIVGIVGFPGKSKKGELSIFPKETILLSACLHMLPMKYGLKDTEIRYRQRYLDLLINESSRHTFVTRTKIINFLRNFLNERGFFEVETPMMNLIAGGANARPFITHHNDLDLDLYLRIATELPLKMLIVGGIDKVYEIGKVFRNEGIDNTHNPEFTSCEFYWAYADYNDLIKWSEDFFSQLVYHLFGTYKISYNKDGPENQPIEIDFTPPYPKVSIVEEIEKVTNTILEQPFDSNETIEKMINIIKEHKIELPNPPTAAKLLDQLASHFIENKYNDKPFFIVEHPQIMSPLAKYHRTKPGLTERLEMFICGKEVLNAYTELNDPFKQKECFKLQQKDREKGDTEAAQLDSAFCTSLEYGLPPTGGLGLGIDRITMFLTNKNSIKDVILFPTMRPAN
UniProt P9WNZ1, whole entry: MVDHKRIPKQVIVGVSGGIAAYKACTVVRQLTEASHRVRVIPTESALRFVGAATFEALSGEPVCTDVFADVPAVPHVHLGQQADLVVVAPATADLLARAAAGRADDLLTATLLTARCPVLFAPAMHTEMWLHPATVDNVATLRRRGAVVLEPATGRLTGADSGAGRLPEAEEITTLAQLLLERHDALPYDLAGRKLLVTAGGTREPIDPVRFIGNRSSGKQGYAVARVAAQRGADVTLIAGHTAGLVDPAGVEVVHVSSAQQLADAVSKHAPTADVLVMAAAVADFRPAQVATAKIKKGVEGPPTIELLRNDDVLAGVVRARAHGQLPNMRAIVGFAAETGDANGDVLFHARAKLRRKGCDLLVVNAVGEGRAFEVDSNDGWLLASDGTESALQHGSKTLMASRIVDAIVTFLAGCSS
UniProt P9WPC5, whole entry: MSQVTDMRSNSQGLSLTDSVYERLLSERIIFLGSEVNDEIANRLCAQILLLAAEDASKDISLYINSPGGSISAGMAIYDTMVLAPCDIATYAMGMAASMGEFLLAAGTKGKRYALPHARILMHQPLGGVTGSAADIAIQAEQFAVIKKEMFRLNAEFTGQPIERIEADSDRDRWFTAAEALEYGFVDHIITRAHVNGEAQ
UniProt P9WPC3, whole entry partner: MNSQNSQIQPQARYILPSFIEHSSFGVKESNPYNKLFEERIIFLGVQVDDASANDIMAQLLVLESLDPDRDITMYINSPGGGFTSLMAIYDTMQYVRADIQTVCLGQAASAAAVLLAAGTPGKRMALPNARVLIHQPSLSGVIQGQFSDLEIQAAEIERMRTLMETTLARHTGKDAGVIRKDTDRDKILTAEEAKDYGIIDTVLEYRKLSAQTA
UniProt Q4DA54, 1-478: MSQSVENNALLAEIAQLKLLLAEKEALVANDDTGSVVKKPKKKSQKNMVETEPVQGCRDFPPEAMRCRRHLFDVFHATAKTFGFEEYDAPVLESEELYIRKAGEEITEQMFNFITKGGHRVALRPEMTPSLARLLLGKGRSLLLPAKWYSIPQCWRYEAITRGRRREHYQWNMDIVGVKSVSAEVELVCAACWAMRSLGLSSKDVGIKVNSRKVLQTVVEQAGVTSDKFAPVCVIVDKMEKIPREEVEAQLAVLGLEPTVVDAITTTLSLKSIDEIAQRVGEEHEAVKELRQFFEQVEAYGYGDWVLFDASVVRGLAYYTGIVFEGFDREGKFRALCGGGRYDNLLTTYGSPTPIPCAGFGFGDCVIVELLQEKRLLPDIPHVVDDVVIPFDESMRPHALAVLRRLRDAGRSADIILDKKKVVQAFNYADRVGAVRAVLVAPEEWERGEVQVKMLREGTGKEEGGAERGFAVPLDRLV

MtTrpRS: 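Tryptophan-tRNA ligase, Mycobacterium tuberculosis (UniProt P9WFT3). Enzyme assay of tryptophanyl-tRNA synthetase; the read-out is not stated. Concentration: 10 µM. Higher most likely means stronger inhibition; the record gives no direction and few retests gave an IC50. About 65,000 compounds were tested under these conditions; 0.098% (about 64) showed 50% or more at least once.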
PfKRS1: 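Enzyme assay of the cytosolic lysyl-tRNA synthetase in 384-well plates, read by luminescence. Target: Lysine-tRNA ligase, Plasmodium falciparum 3D7 (UniProt Q8IDJ8). Tested at 30 µM. Higher reads as stronger inhibition, judged from the few compounds that gave an IC50. Size under these conditions: about 69,000 compounds, about 49 of them at 50% or above in at least one test.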
CoaBC: 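Enzyme assay of CoaBC with a phosphate dye (Biomol Green) read at 650 nm. Target: Coenzyme A biosynthesis protein CoaBC, Mycobacterium tuberculosis (UniProt P9WNZ1). Tested at 30 µM. Higher reads as stronger inhibition, judged from the few compounds that gave an IC50. Most strong results did not repeat in a second test. Size under these conditions: about 67,000 compounds, about 40 of them at 50% or above in at least one test.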
ClpP1P2: 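Protease assay of ClpP1P2, read by the AMC dye that it sets free. Target: ClpP1P2, Mycobacterium tuberculosis (UniProt P9WPC5 and UniProt P9WPC3). Concentration: 50 µM. Direction is inferred from only a few compounds that gave an IC50; most scored high, so higher reads as stronger inhibition. Most other retested compounds had strongly negative values. Size under these conditions: about 69,000 compounds, about 10 of them at 50% or above in at least one test.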
TcHisRS: 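Histidine-tRNA ligase, Trypanosoma cruzi CL Brener (UniProt Q4DA54). Enzyme assay of histidyl-tRNA synthetase; the read-out is not stated. Concentration: 30 µM. Direction is inferred from retests: higher values go with stronger inhibition. About 69,000 compounds were tested under these conditions; 0.045% (about 31) showed 50% or more at least once.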

Each number is a percent effect as filed. The record does not define 0% and 100%; most values in the screen are far below 50% and negative numbers occur (in some assays of this library far below -100). Compounds were drawn at random from those tested, without regard to their results.

For COc1cc(C2(C(=O)NCC(=O)NC3CC3)CC2)ccc1C the result was MtTrpRS: 0.1715%; PfKRS1: 5.841%; CoaBC: -2.101%; ClpP1P2: 4.712%; TcHisRS: 4.444%. CC(Cn1cncn1)NCc1nncn1C1CCCCC1 (stereo not drawn) gave MtTrpRS: -7.014%; PfKRS1: 3.201%; CoaBC: 8.017%; ClpP1P2: -7.216%; TcHisRS: 3.252%. Cc1nc(CCNC(Cc2ccncc2)C(F)(F)F)cs1 (stereo not drawn) gave MtTrpRS: 2.786%; PfKRS1: 2.109%; ClpP1P2: -3.812%; TcHisRS: 10.39%. With O=C(c1ccccn1)N1CCC2(CC1)CN(c1cncnc1)C(=O)CO2 the screen gave MtTrpRS: 0.6255%; PfKRS1: 0.7613%; CoaBC: 5.75%; ClpP1P2: -10.55%; TcHisRS: 6.863%. With O=C(NC1CCC1)[C@H]1CCS(=O)(=O)[C@@H]2CN(CCc3ccccc3)C[C@H]12 the screen gave MtTrpRS: -0.7333%; PfKRS1: 5.157%; CoaBC: 4.39%; ClpP1P2: -3.982%; TcHisRS: 2.941%.

For CCOCC1CN(C(=O)c2cc(C)oc2C)Cc2c1cnn2C (stereo not drawn) the result was MtTrpRS: -0.6347%; PfKRS1: 0.9652%; CoaBC: -13.75%; ClpP1P2: 2.935%; TcHisRS: 9.091%. With Cn1cc(C2CC(=O)NC23CCN(c2ncc(F)cn2)CC3)cn1 (stereo not drawn) the screen gave MtTrpRS: 2.413%; PfKRS1: -0.1898%; CoaBC: 0.6345%; ClpP1P2: 15.5%; TcHisRS: 5.946%. For COC(=O)CC1CCN(C(=O)c2ccccc2-n2nnnc2C)CC1 the result was MtTrpRS: 0%; PfKRS1: 2.219%; CoaBC: 3.281%; ClpP1P2: -2.573%; TcHisRS: 2.97%. CN1CCc2c(NC(=O)NCc3ccccc3Cl)cccc21 gave MtTrpRS: -2.785%; PfKRS1: 1.354%; CoaBC: 3.204%; ClpP1P2: -3.246%; TcHisRS: 4.972%. COCCC1CCCCN1C(=O)c1coc(COc2ccccc2F)n1 (stereo not drawn) gave MtTrpRS: 4.391%; PfKRS1: -2.64%; CoaBC: 5.502%; ClpP1P2: -11.14%; TcHisRS: 5.025%.

With CC(C)c1nsc(N2CCCOCC2)n1 the screen gave MtTrpRS: 0.6798%; PfKRS1: -1.683%; CoaBC: -4.684%; ClpP1P2: -16.97%; TcHisRS: -3.659%. For CC(C)[C@@H]1CN(S(=O)(=O)c2cccc(C(=O)O)c2)C[C@H]1N(C)C the result was MtTrpRS: -0.3974%; PfKRS1: -5.552%; CoaBC: -1.829%; ClpP1P2: -3.977%; TcHisRS: -3.012%. With CC(C)(C(=O)N1CCC(CS(N)(=O)=O)CC1)c1ccccc1F the screen gave MtTrpRS: -0.6054%; PfKRS1: 8.983%; CoaBC: 1.008%; ClpP1P2: -3.221%; TcHisRS: 3.261%. With O=C(c1ccnn1COc1ccc(Cl)cc1)N1CCCC1 the screen gave MtTrpRS: -4.935%; PfKRS1: 4.17%; CoaBC: -44.27%; ClpP1P2: 9.861%; TcHisRS: 6.736%.

2 of the entries, repeated:

| compound | MtTrpRS | PfKRS1 | CoaBC | ClpP1P2 | TcHisRS |
|---|---|---|---|---|---|
| `CN1CCc2c(NC(=O)NCc3ccccc3Cl)cccc21` | -2.785 | 1.354 | 3.204 | -3.246 | 4.972 |
| `COC(=O)CC1CCN(C(=O)c2ccccc2-n2nnnc2C)CC1` | 0 | 2.219 | 3.281 | -2.573 | 2.97 |

Data taken from ChEMBL document CHEMBL3988442, “University of Dundee, Small-Polar-MMV Screening Library” (2021).